No constants are given. Whether binding was seen depends on the method and setting. Some entries that bind do so weakly or less than the wild type.

Chains of the proteins cited; added tags and fusions are not shown.
UniProt Q02223: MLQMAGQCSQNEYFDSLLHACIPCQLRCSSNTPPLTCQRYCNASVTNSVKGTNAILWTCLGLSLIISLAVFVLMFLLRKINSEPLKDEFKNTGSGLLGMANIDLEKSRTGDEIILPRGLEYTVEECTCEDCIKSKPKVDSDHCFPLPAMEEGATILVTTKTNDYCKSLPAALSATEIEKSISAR

The chains are these.
B1: anti-human BCMA monoclonal antibody 18D10 (antibody, human IgG1, kappa, V domains shown)
VH: EVRLVESGGGLVQPGRSLRLSCAASGFTSNDYAMHWVRQAPGRGLEWVSGISWNSDSIGYADSVKGRFTISRDNAKNSLYLQMNSLRTEDTALYYCATVVSAYFDYWGQGTLVTVSS
VL: DIQMTQSPSSLSASVGDRVTITCRTSQSISTYLNWYQQKPGKAPKLLIYAASSLKSGVPSRFSGSGSGTDFTLTISSLQPEDFATYFCQGSYIIPLTFGGGTRVEIKR
B2: anti-human BCMA monoclonal antibody 15A7 (antibody, human IgG1, kappa, V domains shown)
VH: EVQLVESGGGLVQPGGSLRLSCEASGFTFDDCAMHWVRQTPGKGLEWVSGISWNSDTMGYADSVKGRFIISRDNAKNSLYLQMNSLRVEDTALYHCTRVRAAVFDYWGQGVLVTVSS
VL: DIHMTQSPSSLSASVGDRVTITCRASQSISSYLNWFQQKPGKAPTVLIYAASSLQSGVSSRFSGRGSGADFTLTISSLQPEDFASYFCQQSFSPLYIFGQGTKVEIKR
B3: anti-human BCMA monoclonal antibody 20A9 (antibody, human IgG1, kappa, V domains shown)
VH: QVQLVQSGAEVKKPGASAKVSCKASGYTFTSYAMQWVRQAPGQRLEWMGWINAGNGNIKYSQKFQGRVTITRDTSASTAYMELSSLRSEDTAVYYCARGGRLELDVYYYFYYMDVWGKGTTVTVSS
VL: DIVMSQSPDSLAVSLGERTTINCKSSQSVLHSSQNKNYLAWYQQKPGQPPNPLIHWASTRESGVPDRFSGSGSGTDFTLTISSLQAEDVAVYYCQQYYRVPFTFGPGTKVDIKR
B4: anti-human BCMA monoclonal antibody 15H6 (antibody, human IgG1, kappa, V domains shown)
VH: QVQLVQSGAEVKKPGASAKVSCKASGYTFTSYAMQWVRQAPGQRLEWMGWINAGNGNTKYSQKFQGRVTITRDTSASTAYMELSSLRSEDTAVYYCARGGRLELDIYYYFYYMDVWGKGTTVTVSS
VL: DIVMSQSPDSLAVSLGERTTINCKSSQSVLHSSQNKNYLAWYQQKPGQPPNPLIHWASTRESGVPDRFSGSGSGTDFTLTISSLQAEDVAVYYCQQYYRVPFTFGPGTKVDIKR
B5: anti-human BCMA monoclonal antibody 27A7 (antibody, human IgG1, kappa, V domains shown)
VH: EVQLVESGGGLVQPGRSLRLSCAASGFTFDDHAMHWVRQAPGKGLEWVSGISWNSVHIGYADSVKGRFTISRDNAKNSLYLQMNSLRAEDTALYYCAKDIFSPTGDDYWGQGTLVTVSS
VL: DIQMTQSPSSLSASVGDRVTITCRASQDIRNNLGWFQQKPGKTPKRLIYAASSLQSGVPSRFSGSGSGTEFTLTISSLQPEDFATYYCLHHNSYPPTFGQGTKVEIKR
B6: anti-human BCMA monoclonal antibody 23C4 (antibody, human IgG1, kappa, V domains shown)
VH: EVQLVESGGGLVQPGRSLRLSCAASGFTFADHAMHWVRQAPGKGLEWVSGISWNSDHIGYADSVKGRFTISRDNAKNSLYLQMNSLRPEDTALYYCAKDIFSPTGDGYWGQGTLVTVSS
VL: DIQMTQSPSSLSASVGDRVTITCRASQDIRNNLGWFQQKPGKTPKRLIYAASSLQSGVPSRFSGSGSGTEFTLIISSLQPEDFATYYCLHHNSYPPTFGQGTKVEIKR
B7: anti-human BCMA monoclonal antibody 20A2 (antibody, human IgG1, kappa, V domains shown)
VH: QIQLVQSGAEVKKPGASVKVSCKASGYTFTAYYLHWVRQSPGHGLEWMGRIYPNSGDTNYAQKFQGRVTMTRDTSINTAYMELSRLRSDDTALYYCARGFNWNYEGGFDIWGQGTMVTVSS
VL: DVVMTQSPLSLSVTLGQPASISCRSGQSLVYSDGNTYLNWFQQRPGQSPRRLIYKLSSRDSGVPDRFSGSGSGTDFTLKISRMEAEDVGVYYCMQRTHWPPTFGQGTKVEIKR

This assay has as its target BCMA expressed on the surface of U266 cells (human) (UniProt Q02223). Briefly: flow cytometry on U266 cells, hybridoma supernatant, goat anti-mouse IgG-PE.
As to B1, the binding result is “binds”.

As to B2, the binding result is reported as “binds”.

With B3, the binding result is “binds”.

In the case of B4, the binding result is on record as “binds”.

On to B5, for which the binding result was “binds”.

In the case of B6, the binding result is given as “binds”.

Regarding B7, the binding result was “binds”.

Values taken from patent US12686723.
